From patent US20260193623 come the findings set out here.

Common to all, as to assay: activity assay
In one series the test system is T1, MG153-10.
T1 sequence (limits assumed): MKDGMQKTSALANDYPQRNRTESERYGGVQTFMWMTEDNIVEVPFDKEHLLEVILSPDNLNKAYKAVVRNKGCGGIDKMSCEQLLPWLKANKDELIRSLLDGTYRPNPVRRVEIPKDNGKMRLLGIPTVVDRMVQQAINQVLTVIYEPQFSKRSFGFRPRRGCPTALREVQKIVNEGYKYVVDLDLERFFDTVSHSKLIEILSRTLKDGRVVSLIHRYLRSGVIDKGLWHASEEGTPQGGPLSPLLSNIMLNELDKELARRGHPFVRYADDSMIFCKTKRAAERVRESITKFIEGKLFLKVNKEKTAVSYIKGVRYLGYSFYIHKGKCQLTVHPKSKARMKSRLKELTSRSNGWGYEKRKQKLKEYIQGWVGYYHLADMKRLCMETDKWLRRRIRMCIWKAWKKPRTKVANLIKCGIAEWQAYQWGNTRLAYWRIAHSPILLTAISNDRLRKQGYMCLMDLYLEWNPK
To be noted: primer extension gel; 3 mM MgCl2, 37 C; protein translated in vitro; protein details: N-terminal Strep; label: 5'-FAM primer; DNA:RNA hybrid.

The subject of another series is T2, MG153-29.
T2 sequence (limits assumed): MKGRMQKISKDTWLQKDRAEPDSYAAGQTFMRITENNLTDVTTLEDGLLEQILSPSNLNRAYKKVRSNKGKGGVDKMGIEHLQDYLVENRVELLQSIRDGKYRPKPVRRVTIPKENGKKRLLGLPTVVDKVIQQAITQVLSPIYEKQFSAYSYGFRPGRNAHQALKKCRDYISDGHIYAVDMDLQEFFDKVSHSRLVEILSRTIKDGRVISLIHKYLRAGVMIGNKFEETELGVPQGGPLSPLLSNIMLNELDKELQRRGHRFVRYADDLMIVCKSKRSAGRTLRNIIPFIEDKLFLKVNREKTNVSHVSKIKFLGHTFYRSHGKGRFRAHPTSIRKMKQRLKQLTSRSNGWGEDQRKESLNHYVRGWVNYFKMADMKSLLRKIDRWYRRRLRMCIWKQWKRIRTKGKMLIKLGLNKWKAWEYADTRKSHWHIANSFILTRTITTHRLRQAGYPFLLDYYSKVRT
To be noted: primer extension gel; 3 mM MgCl2, 37 C; protein translated in vitro; protein details: N-terminal Strep; label: 5'-FAM primer; DNA:RNA hybrid.

The subject of a further series is T3, MG155-1.
T3 sequence (limits assumed): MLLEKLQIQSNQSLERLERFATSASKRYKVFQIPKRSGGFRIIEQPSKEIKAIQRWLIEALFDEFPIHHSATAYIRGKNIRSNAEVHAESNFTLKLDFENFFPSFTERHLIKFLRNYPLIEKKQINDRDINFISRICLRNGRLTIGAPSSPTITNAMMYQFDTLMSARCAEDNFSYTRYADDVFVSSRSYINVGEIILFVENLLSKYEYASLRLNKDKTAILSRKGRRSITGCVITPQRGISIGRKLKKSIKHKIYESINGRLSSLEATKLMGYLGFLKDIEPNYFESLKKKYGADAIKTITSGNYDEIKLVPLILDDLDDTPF
Conditions: tested, not listed as active; protein translated in vitro; protein details: N-terminal Strep; label: 5'-FAM primer; DNA:RNA hybrid.

The next series has as its system T4, MG153-33.
T4 sequence (limits assumed): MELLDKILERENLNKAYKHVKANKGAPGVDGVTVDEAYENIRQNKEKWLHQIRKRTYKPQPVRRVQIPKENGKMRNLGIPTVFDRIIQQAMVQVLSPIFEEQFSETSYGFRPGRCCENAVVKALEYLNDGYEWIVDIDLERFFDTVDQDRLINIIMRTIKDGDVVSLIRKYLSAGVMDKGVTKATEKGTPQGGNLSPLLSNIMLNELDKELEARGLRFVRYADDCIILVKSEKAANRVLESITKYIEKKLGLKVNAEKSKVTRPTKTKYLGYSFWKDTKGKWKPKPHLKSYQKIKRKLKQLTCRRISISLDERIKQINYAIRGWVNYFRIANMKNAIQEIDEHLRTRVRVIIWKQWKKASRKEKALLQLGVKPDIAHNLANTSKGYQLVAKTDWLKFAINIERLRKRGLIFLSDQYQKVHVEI
To be noted: primer extension gel; 3 mM MgCl2, 37 C; protein translated in vitro; protein details: N-terminal Strep; label: 5'-FAM primer; DNA:RNA hybrid.

The test system of the next series is T5, MG153-30.
T5 sequence (limits assumed): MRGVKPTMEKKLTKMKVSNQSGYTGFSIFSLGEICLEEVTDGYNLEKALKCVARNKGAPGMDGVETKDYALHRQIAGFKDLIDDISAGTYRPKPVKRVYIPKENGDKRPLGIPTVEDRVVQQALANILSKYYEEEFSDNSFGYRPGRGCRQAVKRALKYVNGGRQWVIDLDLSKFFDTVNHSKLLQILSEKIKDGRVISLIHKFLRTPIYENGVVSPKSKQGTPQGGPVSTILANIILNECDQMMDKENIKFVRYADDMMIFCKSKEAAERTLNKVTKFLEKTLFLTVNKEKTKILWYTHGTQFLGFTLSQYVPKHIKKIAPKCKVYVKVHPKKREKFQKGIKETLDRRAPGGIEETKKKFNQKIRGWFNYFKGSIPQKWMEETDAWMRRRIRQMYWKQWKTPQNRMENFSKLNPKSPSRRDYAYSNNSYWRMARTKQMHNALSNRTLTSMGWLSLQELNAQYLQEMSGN
To be noted: primer extension gel; 3 mM MgCl2, 37 C; protein translated in vitro; protein details: N-terminal Strep; label: 5'-FAM primer; DNA:RNA hybrid.

The test system of another series is T6, MG151-90.
T6 sequence (limits assumed): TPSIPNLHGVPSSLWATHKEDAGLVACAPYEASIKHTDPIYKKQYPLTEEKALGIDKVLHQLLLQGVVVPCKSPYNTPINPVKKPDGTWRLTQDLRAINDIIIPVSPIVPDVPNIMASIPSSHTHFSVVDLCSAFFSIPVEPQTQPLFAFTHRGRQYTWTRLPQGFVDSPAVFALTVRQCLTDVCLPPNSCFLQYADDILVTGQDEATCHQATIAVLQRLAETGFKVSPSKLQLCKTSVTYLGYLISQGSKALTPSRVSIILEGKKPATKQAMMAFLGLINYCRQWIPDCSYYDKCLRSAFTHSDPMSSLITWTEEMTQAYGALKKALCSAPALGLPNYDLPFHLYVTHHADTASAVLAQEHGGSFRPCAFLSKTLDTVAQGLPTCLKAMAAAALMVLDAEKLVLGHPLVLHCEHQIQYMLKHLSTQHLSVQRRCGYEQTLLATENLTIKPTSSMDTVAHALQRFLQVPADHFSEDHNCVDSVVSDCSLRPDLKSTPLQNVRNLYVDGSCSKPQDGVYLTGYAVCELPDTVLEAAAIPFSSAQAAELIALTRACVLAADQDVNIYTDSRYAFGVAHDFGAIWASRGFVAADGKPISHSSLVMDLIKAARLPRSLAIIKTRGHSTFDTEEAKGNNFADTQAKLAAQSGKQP
Conditions: primer extension gel; protein translated in vitro; protein details: Strep, RT-RNase H trim; label: 5'-FAM primer; DNA:RNA hybrid.

Construct, isoform or probe ends are uncertain for at least one entry. For part of these data: No signal at the amounts used counts as a negative. Where a protein sequence is shown, tags need not be part of it.

For “GGCAAACCGCCTCTCCCCGCGCGTTGGCCGATTCATTAATGCAGCTGGCACGACAGGTTTCCCGACTGGAAAGGAGACCCGGGCAGTGAGCGCAACGGGTCTCCAATTTAAGCCAGCCCCGACACCCGCCAACACCCGCTGACGCGCCCTGACGGGCTTGTCTGCTCCCGGCATCCGCTTACAGACAAGCTGTGACCGTCTC / GAGACGGTCACAGCTTGTCTG [202-nt RNA template annealed to DNA primer]”, the “activity on this sequence” value in the series with MG153-10 is “active”; in the series on MG153-29, “active”; with MG155-1 it was “not active”; in the series on MG153-33 it was “active”; in the series on MG153-30, “active”; with MG151-90, “active”.
